From PubChem BioAssay record AID1080 (Emory University Molecular Libraries Screening Center, 2008).

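A counter-screen in EP4-overexpressing cells measuring cyclic AMP with a time-resolved FRET kit under weak PGE2 stimulation.
Compounds were tested at 20 µM final. A low (about EC15) PGE2 dose was present.
Percent cAMP induction as a fraction of the 1 µM PGE2 response, averaged over three replicates; a higher value means more cAMP.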

Values are in %.
Common to all entries: measured here: EP4 receptor counter-screen.
This is a side read-out of the assay, for part of the compounds, not drawn at random.

compound,condition,cAMP induction (%)
c1ccc(Cc2nc3ccccc3n2Cc2ccccc2)cc1,percent of 1 uM PGE2 response; plus low (about EC15) PGE2 agonist,-18.62
C=CCNC(=S)NNc1nc(Nc2ccccc2)nc(N2CCCCC2)n1,percent of 1 uM PGE2 response; plus low (about EC15) PGE2 agonist,-4.53
O=C(CSc1nnc(-c2ccc(Cl)cc2)n1Cc1ccco1)c1cccs1,percent of 1 uM PGE2 response; plus low (about EC15) PGE2 agonist,-10.65
O=c1[nH]c(SCc2cccc(Cl)c2)nc2c1CCCC2,percent of 1 uM PGE2 response; plus low (about EC15) PGE2 agonist,-11.68
CCOC(=O)c1c(NC(=O)c2cccs2)sc2c1CCCC2,percent of 1 uM PGE2 response; plus low (about EC15) PGE2 agonist,5.123
COC(=O)c1c(NC(=O)C2CC2)sc2c1CCCC2,percent of 1 uM PGE2 response; plus low (about EC15) PGE2 agonist,-4.423
COC(=O)c1c(NC(=O)Cc2cccs2)sc2c1CCCC2,percent of 1 uM PGE2 response; plus low (about EC15) PGE2 agonist,-10.5
S=c1[nH]nc(-c2ccc3ccccc3n2)n1Cc1ccccc1,percent of 1 uM PGE2 response; plus low (about EC15) PGE2 agonist,-2.42
Cc1cc(C)cc(C(=N)c2ccccc2Cc2cccc3ccccc23)c1,percent of 1 uM PGE2 response; plus low (about EC15) PGE2 agonist,11.23
CCOc1ccc(N(Cc2ccc(OC)cc2)C(=O)c2ccco2)cc1,percent of 1 uM PGE2 response; plus low (about EC15) PGE2 agonist,-11.78
CCc1nc(N2CCCCC2)c2oc3ccccc3c2n1,percent of 1 uM PGE2 response; plus low (about EC15) PGE2 agonist,-14.07
CCOc1ccccc1C(=O)Nc1ccccc1-c1ccccc1,percent of 1 uM PGE2 response; plus low (about EC15) PGE2 agonist,2.383
CCCOc1ccc(/C=N/Nc2ccc(C(=O)O)cc2)c(OCCC)c1,percent of 1 uM PGE2 response; plus low (about EC15) PGE2 agonist,-8.75
Cc1cccc2cc(CN(Cc3cccs3)C3(c4nnnn4C4CCCC4)CCCC3)c(=O)[nH]c12,percent of 1 uM PGE2 response; plus low (about EC15) PGE2 agonist,-3.76
O=c1oc2c3c4c(cc2c(C(F)(F)F)c1CCN1CCOCC1)CCCN4CCC3,percent of 1 uM PGE2 response; plus low (about EC15) PGE2 agonist,-14.22
CCN=C1S/C(=C\c2ccc(O)c(OCC)c2)C(=O)N1CC,percent of 1 uM PGE2 response; plus low (about EC15) PGE2 agonist,-4.893
Cc1cc(C)c2cc(C)c(SCC(=O)NCc3ccco3)nc2c1,percent of 1 uM PGE2 response; plus low (about EC15) PGE2 agonist,-2.273
O=C(Nc1ccccc1Cl)N1CCSc2ccccc21,percent of 1 uM PGE2 response; plus low (about EC15) PGE2 agonist,8.953
O=C(/C(=C/O)N=Nc1ccccc1)c1cccs1,percent of 1 uM PGE2 response; plus low (about EC15) PGE2 agonist,-13.07
COc1ccc(Cn2c(-c3ccc(OC)cc3)nc3ccccc32)cc1,percent of 1 uM PGE2 response; plus low (about EC15) PGE2 agonist,4.553
N#Cc1sc2nc(N3CCCCC3)c3c(c2c1N)CCCC3,percent of 1 uM PGE2 response; plus low (about EC15) PGE2 agonist,1.37
Cc1onc(-c2c(F)cccc2Cl)c1C(=O)OCn1nnc2ccccc2c1=O,percent of 1 uM PGE2 response; plus low (about EC15) PGE2 agonist,-6.94
COc1ccc(OC)c(-c2cnc(OC(C)(C)C)nc2OC(C)(C)C)c1,percent of 1 uM PGE2 response; plus low (about EC15) PGE2 agonist,-16.69
C=CCn1c(-c2oc3nc(-c4ccccc4)cc(-c4ccccc4)c3c2N)n[nH]c1=S,percent of 1 uM PGE2 response; plus low (about EC15) PGE2 agonist,0.47
O=C(Nc1cccc2cccnc12)c1ccc(Br)o1,percent of 1 uM PGE2 response; plus low (about EC15) PGE2 agonist,1.803

The first 2 entries again:

compound	condition	cAMP induction (%)
c1ccc(Cc2nc3ccccc3n2Cc2ccccc2)cc1	percent of 1 uM PGE2 response; plus low (about EC15) PGE2 agonist	-18.62
C=CCNC(=S)NNc1nc(Nc2ccccc2)nc(N2CCCCC2)n1	percent of 1 uM PGE2 response; plus low (about EC15) PGE2 agonist	-4.53